These are yes or no findings as the source states them, for the method shown. Binding seen in cells or lysates may run through a third protein. A yes stands for co-enrichment or nearness to the bait. Other partners may have been found. For some of these results: A no says only that the protein was not detected with the bait.

The chains behind the UniProt entries cited, without tags or fusion partners.
UniProt Q14240: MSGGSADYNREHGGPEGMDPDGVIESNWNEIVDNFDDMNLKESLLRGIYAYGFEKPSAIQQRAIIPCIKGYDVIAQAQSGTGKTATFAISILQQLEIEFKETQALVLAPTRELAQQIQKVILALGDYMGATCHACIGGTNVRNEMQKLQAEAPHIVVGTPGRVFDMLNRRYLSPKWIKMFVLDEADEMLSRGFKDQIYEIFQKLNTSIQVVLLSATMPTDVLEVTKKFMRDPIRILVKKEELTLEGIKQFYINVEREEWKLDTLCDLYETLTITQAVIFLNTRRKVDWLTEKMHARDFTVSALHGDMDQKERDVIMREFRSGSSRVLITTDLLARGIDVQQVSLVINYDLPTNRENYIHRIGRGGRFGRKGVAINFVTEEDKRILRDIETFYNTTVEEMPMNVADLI
UniProt P60842: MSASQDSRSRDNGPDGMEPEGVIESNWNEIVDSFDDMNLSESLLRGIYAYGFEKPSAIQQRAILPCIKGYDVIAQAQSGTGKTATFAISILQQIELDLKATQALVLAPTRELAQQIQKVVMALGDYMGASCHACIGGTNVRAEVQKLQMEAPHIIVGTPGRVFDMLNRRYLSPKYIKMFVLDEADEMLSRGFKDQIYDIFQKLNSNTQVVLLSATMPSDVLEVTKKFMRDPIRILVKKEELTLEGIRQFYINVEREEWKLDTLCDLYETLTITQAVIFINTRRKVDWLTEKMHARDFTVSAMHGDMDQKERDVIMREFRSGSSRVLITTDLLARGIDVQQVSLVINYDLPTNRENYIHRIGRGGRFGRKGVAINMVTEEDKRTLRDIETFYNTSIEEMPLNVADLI
UniProt Q04637: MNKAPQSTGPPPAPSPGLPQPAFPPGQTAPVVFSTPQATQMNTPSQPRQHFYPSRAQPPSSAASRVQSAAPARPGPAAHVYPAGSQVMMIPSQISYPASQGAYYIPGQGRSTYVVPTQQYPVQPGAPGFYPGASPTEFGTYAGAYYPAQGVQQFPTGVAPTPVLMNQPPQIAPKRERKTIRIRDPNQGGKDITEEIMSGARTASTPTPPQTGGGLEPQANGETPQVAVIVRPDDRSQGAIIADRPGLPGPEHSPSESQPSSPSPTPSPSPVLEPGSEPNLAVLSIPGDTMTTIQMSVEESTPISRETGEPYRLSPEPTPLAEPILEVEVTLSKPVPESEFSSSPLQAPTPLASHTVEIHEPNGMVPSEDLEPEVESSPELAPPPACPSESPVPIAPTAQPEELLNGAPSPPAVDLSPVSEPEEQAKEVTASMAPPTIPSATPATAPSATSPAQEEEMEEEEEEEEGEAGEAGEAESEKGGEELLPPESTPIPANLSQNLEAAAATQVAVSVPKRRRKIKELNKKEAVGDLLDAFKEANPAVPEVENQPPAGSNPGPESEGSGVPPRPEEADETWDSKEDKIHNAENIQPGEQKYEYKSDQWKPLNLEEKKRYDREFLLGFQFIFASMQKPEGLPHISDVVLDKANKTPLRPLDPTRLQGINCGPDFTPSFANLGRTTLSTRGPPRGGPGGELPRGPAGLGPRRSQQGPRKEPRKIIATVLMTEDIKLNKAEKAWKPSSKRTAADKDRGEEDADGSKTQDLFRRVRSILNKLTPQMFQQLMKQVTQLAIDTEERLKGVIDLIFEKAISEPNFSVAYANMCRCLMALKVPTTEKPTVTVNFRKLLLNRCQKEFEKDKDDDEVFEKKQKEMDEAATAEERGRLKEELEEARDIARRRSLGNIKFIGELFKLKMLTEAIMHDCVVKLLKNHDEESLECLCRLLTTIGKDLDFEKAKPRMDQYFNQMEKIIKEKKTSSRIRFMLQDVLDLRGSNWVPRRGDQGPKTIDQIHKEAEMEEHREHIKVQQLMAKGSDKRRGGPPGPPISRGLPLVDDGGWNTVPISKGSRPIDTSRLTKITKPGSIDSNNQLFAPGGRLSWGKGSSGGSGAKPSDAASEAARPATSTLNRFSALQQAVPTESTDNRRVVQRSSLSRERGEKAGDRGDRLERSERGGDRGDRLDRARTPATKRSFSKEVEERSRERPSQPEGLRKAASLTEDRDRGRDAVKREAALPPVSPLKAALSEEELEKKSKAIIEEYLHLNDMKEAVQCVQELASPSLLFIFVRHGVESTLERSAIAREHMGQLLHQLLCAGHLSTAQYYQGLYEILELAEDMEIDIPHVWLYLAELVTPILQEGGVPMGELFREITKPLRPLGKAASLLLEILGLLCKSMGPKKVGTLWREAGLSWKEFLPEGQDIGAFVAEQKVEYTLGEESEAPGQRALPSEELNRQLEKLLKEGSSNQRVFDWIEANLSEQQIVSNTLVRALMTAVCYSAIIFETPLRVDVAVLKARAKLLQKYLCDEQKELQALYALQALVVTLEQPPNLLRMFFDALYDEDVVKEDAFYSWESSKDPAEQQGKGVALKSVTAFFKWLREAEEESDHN
UniProt O43432: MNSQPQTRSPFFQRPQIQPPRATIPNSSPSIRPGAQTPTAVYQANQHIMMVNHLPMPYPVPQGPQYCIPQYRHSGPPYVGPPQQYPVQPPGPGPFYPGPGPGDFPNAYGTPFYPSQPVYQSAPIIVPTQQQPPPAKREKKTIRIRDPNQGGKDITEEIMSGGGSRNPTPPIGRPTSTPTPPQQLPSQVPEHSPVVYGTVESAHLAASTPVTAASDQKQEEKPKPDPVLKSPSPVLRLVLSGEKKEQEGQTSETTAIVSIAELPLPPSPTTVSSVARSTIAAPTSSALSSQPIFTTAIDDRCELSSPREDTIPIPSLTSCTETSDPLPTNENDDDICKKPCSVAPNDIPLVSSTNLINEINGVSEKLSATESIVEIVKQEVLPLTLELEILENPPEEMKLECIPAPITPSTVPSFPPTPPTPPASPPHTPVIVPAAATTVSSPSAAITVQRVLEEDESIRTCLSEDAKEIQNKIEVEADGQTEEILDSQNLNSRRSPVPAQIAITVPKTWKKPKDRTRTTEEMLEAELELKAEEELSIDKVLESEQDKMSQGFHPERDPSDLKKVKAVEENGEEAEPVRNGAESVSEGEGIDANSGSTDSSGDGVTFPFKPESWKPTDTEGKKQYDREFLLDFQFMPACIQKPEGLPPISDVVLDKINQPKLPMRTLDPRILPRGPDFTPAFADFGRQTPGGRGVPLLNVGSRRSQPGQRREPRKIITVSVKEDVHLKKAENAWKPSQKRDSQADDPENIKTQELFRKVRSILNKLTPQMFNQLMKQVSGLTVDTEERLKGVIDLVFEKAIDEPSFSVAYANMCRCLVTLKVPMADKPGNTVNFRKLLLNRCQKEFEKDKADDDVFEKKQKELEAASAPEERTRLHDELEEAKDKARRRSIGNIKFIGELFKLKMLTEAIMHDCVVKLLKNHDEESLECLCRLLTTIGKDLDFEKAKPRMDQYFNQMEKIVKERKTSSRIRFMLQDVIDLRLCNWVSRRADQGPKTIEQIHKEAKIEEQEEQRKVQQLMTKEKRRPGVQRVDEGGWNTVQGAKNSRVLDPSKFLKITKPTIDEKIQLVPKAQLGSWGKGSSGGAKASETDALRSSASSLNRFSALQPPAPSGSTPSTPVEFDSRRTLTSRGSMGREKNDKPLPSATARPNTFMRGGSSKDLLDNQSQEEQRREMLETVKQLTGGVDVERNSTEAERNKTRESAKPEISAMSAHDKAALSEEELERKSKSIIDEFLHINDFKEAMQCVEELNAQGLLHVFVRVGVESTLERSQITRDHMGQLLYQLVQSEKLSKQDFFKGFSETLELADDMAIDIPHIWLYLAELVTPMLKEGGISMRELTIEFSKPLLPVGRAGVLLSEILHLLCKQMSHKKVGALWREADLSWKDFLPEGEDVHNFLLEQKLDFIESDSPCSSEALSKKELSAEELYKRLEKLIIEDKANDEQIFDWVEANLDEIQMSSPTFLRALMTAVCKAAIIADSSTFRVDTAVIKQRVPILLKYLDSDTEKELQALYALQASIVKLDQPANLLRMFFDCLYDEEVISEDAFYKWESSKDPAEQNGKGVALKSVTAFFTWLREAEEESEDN

The source of these data is article PMC4212580.

Assay [1] concerns the target GFP-eIF4AII (eukaryotic translation initiation factor eIF4AII, GFP fused to the N-terminus) (human) (UniProt Q14240). Put plainly: affinity purification with mass spectrometry; SILAC-labelled 293T cells transfected with GFP or GFP-eIF4AI/II; lysate (10 mM TrisCl pH 7.5, 150 mM NaCl, 0.5 mM EDTA, 0.5% NP40, RNase cocktail) on anti-GFP agarose, 4 °C, 2 hr; eluates mixed 1:1:1, LC-MS/MS; hits above 1.96 SD of the sample/mock ratios.

Assay [2] deals with GFP-eIF4AI (eukaryotic translation initiation factor eIF4AI, GFP fused to the N-terminus) (human) (UniProt P60842). Described as above.

As to eIF4GI (from UniProt Q04637 1-1599), the binding result in assay [1] is reported as “binds”.

As to eIF4GII (from UniProt O43432 1-1585), the binding result in assay [2] and in assay [1] was “binds” throughout.

As for hnRNPK (from UniProt P61978 1-463), the binding result in assay [1] was “no binding”.
